Measured values: paper PMC3662644, “Genome wide analysis of the complete GlnR nitrogen-response regulon in Mycobacterium smegmatis”

target: T1, His-GlnR (UniProt A0R4C4); assay: EMSA; conditions: EMSA: 0.4 ng DIG-labelled DNA, 0-0.9 ug His-GlnR, 0.5 ug poly d(A-T), 25 mM Hepes pH 7.9, 150 mM NaCl, 2.5 mM MgCl2, 37 C, 15 min; recombinant protein; protein details: N-terminal His6 (pET28b); label: DIG 3'-end
T1 sequence (looked up, limits assumed): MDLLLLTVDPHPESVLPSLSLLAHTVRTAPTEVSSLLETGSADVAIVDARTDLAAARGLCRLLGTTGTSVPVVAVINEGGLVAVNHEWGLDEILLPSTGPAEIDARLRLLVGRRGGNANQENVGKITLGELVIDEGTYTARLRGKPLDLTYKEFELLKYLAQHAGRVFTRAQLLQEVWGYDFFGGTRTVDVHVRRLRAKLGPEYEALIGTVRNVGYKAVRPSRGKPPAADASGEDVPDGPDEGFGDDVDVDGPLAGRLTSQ

Does “GCAATCGCGGGGTAACGCCGTCCCGGAAACAGAGCCTGCCT (double strand) [Peak 2 long (ACn12AC)]” bind?
Result: binds more weakly

Does “GCAATCGCGGGGTAACGCCGTGGAAACAGAGCCTGCCT (double strand) [Peak 2 WT]” bind?
Result: binds

Does “GCAATCGCGGGGTAACGTGGAAACAGAGCCTGCCT (double strand) [Peak 2 short (ACn6AC)]” bind?
Result: binds more weakly

Does “TCATGTCGAGGTTAATTTGTTCGTCACACACAGACATT (double strand) [Peak 24 WT]” bind?
Result: binds

Construct, isoform or probe ends are uncertain for at least one entry. The comparison behind a weaker result is the experiment's own reference, which may not be listed here. Protein sequences can lack the tags named with them. At least one verdict rests on a figure or table, not on a statement of the authors.
